Assay results

Data taken from PubChem BioAssay AID977624, deposited by Broad Institute (2014).

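Wild-type E. coli carrying GFP, grown in the same well as an h34 humanized-ribosome RFP strain; GFP fluorescence for growth, read after 24 h. The value is the change in activity at the highest dose tested; more negative means stronger inhibition. Active requires GFP to fall at least twice as much as RFP with growth loss below a set limit; inconclusive means no clear call; everything else is inactive.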

These entries are mostly ones the record files as inconclusive; other results of the assay are not listed here.

SMILES | tested on / at | activity change | filed as
O=C1CCCN1c1ccc([N+](=O)[O-])cc1 | at 50 µM (top of the series) | 10.12 | inconclusive
CCOc1ccccc1C(=O)NCC(=O)OCCOc1cccc(Cl)c1 | at 50 µM (top of the series) | 21.91 | inconclusive
C[C@H]1CCCCO[C@@H](CN(C)C)[C@@H](C)CN([C@@H](C)CO)C(=O)c2cc(NC(=O)Nc3cccc4ccccc34)ccc2O1 | at 50 µM (top of the series) | 4.536 | inactive
COC(=O)c1nc(-c2ccc(C)cc2)[nH]c1C(C)(C)C | at 50 µM (top of the series) | 12.38 | inactive
O=C(Nc1cscc1S(=O)(=O)c1ccccc1)c1ccccc1Cl | at 50 µM (top of the series) | -15.71 | inconclusive
CCOc1ccc(NC(=O)CCc2nnc3ccc(N4CCC(C)CC4)nn23)cc1 | at 50 µM (top of the series) | 9.503 | inactive
COc1ccc(OC)c(-c2nn(-c3ccccc3)cc2C(=O)N2CCc3ccccc3C2)c1 | at 50 µM (top of the series) | 4.227 | inconclusive
COc1ccc(NS(=O)(=O)c2cc(NC(=O)CNC(=O)c3cccc(OC)c3)ccc2C)cc1 | at 50 µM (top of the series) | -15.89 | inconclusive
COc1ccccc1C(=O)Nc1cccc2cccnc12 | at 50 µM (top of the series) | 8.604 | inconclusive
CCc1cc(CN2CCOCC2)c(NC(=O)c2ccccc2)s1 | at 50 µM (top of the series) | 19.79 | inconclusive
Cc1nc2ncnn2c(N2CCC(C(=O)NC3CCCC3)CC2)c1Cc1ccccc1 | at 50 µM (top of the series) | -0.703 | inconclusive
Cc1ccc(NC(=O)c2ccc3c(c2)OCO3)cc1S(=O)(=O)N1CCOCC1 | at 50 µM (top of the series) | 17.73 | inconclusive
O=C(Nc1nc2ccccc2n1CCN1CCOCC1)c1ccccc1 | at 50 µM (top of the series) | 33.38 | inconclusive
Brc1ccc(-n2cnc(-c3ccccc3)c2)cc1 | at 50 µM (top of the series) | 25.13 | inconclusive
O=C1c2ccccc2C(=O)N1CCc1c[nH]c2ccccc12 | at 50 µM (top of the series) | -36.41 | inconclusive
COc1ccccc1NC(=O)CSc1ncc(CO)n1Cc1ccc(F)cc1 | at 50 µM (top of the series) | 6.131 | inactive
O=C(NCC(c1ccc(F)cc1)N1CCOCC1)c1ccc([N+](=O)[O-])o1 (stereo not given) | at 50 µM (top of the series) | 9.34 | inconclusive
O=C(NCCCCc1ccccc1)c1cccc(NC(=O)C2CCCCC2)c1 | at 50 µM (top of the series) | -21.41 | inconclusive
CC(C)CN(C(=O)c1cc([N+](=O)[O-])cc([N+](=O)[O-])c1)C1CCS(=O)(=O)C1 (stereo not given) | at 50 µM (top of the series) | 50.32 | inconclusive
Cc1cc(C)n(CC(O)COc2ccc3ccccc3c2)n1 (stereo not given) | at 50 µM (top of the series) | 10.76 | inactive
Cc1ccc2oc(=O)n(CC(=O)OCCC(C)C)c2c1 | at 50 µM (top of the series) | 24.69 | inconclusive
COC(=O)c1c(C)oc(C)c1S(=O)(=O)Nc1ccc(C(C)C)cc1 | at 50 µM (top of the series) | -34.33 | inconclusive
COc1cccc(NC(=O)c2ccc(NCCCN3CCC(C)CC3)c([N+](=O)[O-])c2)c1 | at 50 µM (top of the series) | 25.39 | inconclusive
CCn1c(COc2cccc(OC)c2)nnc1SCC(=O)Nc1cc(OC)ccc1OC | at 50 µM (top of the series) | 0.228 | inactive
[O-][n+]1ccccc1/C=C/c1ccccc1 | at 50 µM (top of the series) | 32.25 | inconclusive
Cc1ccc(S(=O)(=O)N(C(=O)c2ccncc2)c2ccc(OC(=O)c3ccncc3)cc2)c(C)c1 | at 50 µM (top of the series) | 26.01 | inconclusive
CC(C)(C)NC(=O)C(c1ccncc1)N(Cc1ccc(F)cc1)C(=O)c1ccc(-c2ccccc2)[nH]1 (stereo not given) | at 50 µM (top of the series) | 10.57 | inconclusive
O=C(Nc1ccc(Nc2ccccc2)cc1)c1ccc(F)cc1 | at 50 µM (top of the series) | 13.25 | inactive
COc1ccc(CN(C)C[C@H]2Oc3ccc(NS(=O)(=O)c4ccc(Cl)cc4)cc3CC(=O)N([C@@H](C)CO)C[C@H]2C)cc1 | at 50 µM (top of the series) | 1.089 | inactive
O=C(Nc1ccc2nc(-c3ccccc3)[nH]c2c1)c1cccs1 | at 50 µM (top of the series) | -8.141 | inconclusive
Cc1occc1C(=O)Nc1ccc2c(c1)CCC2 | at 50 µM (top of the series) | 18.05 | inconclusive
O=c1c2ccccc2nc(SCc2ccccc2)n1CC1CCCO1 (stereo not given) | at 50 µM (top of the series) | 9.7 | inconclusive
CC(C)c1ccc(-c2nc3ccccc3s2)cc1 | at 50 µM (top of the series) | -11.44 | inconclusive
COCc1nnc(NC(=O)c2ccc(S(=O)(=O)N3CCCC3)cc2)o1 | at 50 µM (top of the series) | 7.434 | inactive
O=C(Nc1cc(S(=O)(=O)N2CCOCC2)ccc1N1CCOCC1)c1ccc([N+](=O)[O-])s1 | at 50 µM (top of the series) | -6.785 | inactive
O=S(=O)(Cc1ccco1)Cc1nc(-c2ccc(Cl)cc2)cs1 | at 50 µM (top of the series) | 17.56 | inconclusive

The last 5 entries again:

{"smiles": "O=c1c2ccccc2nc(SCc2ccccc2)n1CC1CCCO1", "stereo": "stereo not given", "tested on / at": "at 50 µM (top of the series)", "activity change": "9.7", "filed as": "inconclusive"}
{"smiles": "CC(C)c1ccc(-c2nc3ccccc3s2)cc1", "tested on / at": "at 50 µM (top of the series)", "activity change": "-11.44", "filed as": "inconclusive"}
{"smiles": "COCc1nnc(NC(=O)c2ccc(S(=O)(=O)N3CCCC3)cc2)o1", "tested on / at": "at 50 µM (top of the series)", "activity change": "7.434", "filed as": "inactive"}
{"smiles": "O=C(Nc1cc(S(=O)(=O)N2CCOCC2)ccc1N1CCOCC1)c1ccc([N+](=O)[O-])s1", "tested on / at": "at 50 µM (top of the series)", "activity change": "-6.785", "filed as": "inactive"}
{"smiles": "O=S(=O)(Cc1ccco1)Cc1nc(-c2ccc(Cl)cc2)cs1", "tested on / at": "at 50 µM (top of the series)", "activity change": "17.56", "filed as": "inconclusive"}